# From the supplement of paper PMC5662767
# Counter-ions that a name gives are not always drawn. The list shows a part of the results. Part of the spread comes from offsets between plates or batches.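 The clonal Drosophila S2 line carries Smoothened with a circularly permuted GFP inserted in its cytoplasmic tail, which fluoresces once Hh-driven phosphorylation opens an inhibitory loop. Per-cell fluorescence was read by flow cytometry, scaled to Hh-stimulated untreated cells. Hits were groups of inhibitors sharing pathway targets that shifted fluorescence consistently, not single compounds.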
# Test system: Drosophila S2 cl14 SmoIP sensor cells
# Test: normalized SmoIP GFP fluorescence (untreated unstimulated = 0%, untreated Hh-stimulated = 100%); higher = more Smo activation sensor fluorescence
# Details: compound concentration: 15 uM, 24 h
# [1] = stimulation: Hh conditioned medium (+Hh)
# [2] = stimulation: mock conditioned medium (-Hh)
SMILES,normalized SmoIP GFP fluorescence [1] [%],normalized SmoIP GFP fluorescence [2] [%]
OC[C@@H](O)CN1CCN(c2ccccc2)CC1 [levodropropizine],112,-1.74
Cc1onc(-c2ccccc2)c1-c1ccc(S(N)(=O)=O)cc1 [valdecoxib],127,-3.62
N#C/C(=C\c1ccc(O)c(O)c1)C(=O)NCc1ccccc1,214,84.6
COc1cc2nc(N(C)CCCNC(=O)C3CCCO3)nc(N)c2cc1OC (stereo not drawn) [Alfuzosin-hydrochloride],133,0.274
CC(C)CN(C[C@@H](O)[C@H](Cc1ccccc1)NC(=O)O[C@H]1CO[C@H]2OCC[C@H]21)S(=O)(=O)c1ccc(N)cc1 [Darunavir-Ethanolate(Prezista)],116,3.18
Cc1cn(-c2cc(NC(=O)c3ccc(C)c(Nc4nccc(-c5cccnc5)n4)c3)cc(C(F)(F)F)c2)cn1 [Nilotinib],125,7.06
CS(=O)(=O)CCNCc1ccc(-c2ccc3ncnc(Nc4ccc(OCc5cccc(F)c5)c(Cl)c4)c3c2)o1 [Lapatinib-Ditosylate],176,41.9
COc1ccc(C[C@H](NC(=O)[C@H](C)NC(=O)CN2CCOCC2)C(=O)N[C@@H](Cc2ccccc2)C(=O)[C@@]2(C)CO2)cc1,72.6,33.1
Nc1nccc2c1ncn2[C@@H]1C=C(CO)[C@@H](O)[C@H]1O [3-deazaneplanocin-a-dznep],154,4.28
Cc1ccc(S(=O)(=O)C=CC#N)cc1,96.1,84.4
Cc1ccc2c(c1)C(=O)C1(O)CCN(c3ccccc3)C1=N2 (stereo not drawn) [blebbistatin],145,43.6
NS(=O)(=O)C#Cc1ccccc1 [pifithrin-u],93.3,14.5
Oc1nc(-c2ccc(C(F)(F)F)cc2)nc2c1CSCC2,124,2.11
C=C(C)[C@@H]1CC[C@]2(C(=O)O)CC[C@]3(C)[C@H](CC[C@@H]4[C@@]5(C)CC[C@H](O)C(C)(C)[C@@H]5CC[C@]43C)[C@@H]12 [betulinic-acid],128,6.95
O=C1CN2Cc3c(ccc(Cl)c3Cl)N=C2N1 [anagrelide-hydrochloride],109,-4.92
COc1nc(C)cnc1NS(=O)(=O)c1cccnc1-c1ccc(-c2nnco2)cc1 [Zibotentan(ZD4054)],121,-3.17
N=C(N)Nc1ccc(C(=O)Oc2ccc3cc(C(=N)N)ccc3c2)cc1 [Nafamostat-mesylate],115,23.1

# Quoted from the listing:
# normalized SmoIP GFP fluorescence [1] [%], `COc1cc2nc(N(C)CCCNC(=O)C3CCCO3)nc(N)c2cc1OC` (stereo not drawn) [Alfuzosin-hydrochloride] is entered as 133
# normalized SmoIP GFP fluorescence [2] [%], `Nc1nccc2c1ncn2[C@@H]1C=C(CO)[C@@H](O)[C@H]1O` [3-deazaneplanocin-a-dznep] is entered as 4.28

# Following part

SMILES,normalized SmoIP GFP fluorescence [1] [%],normalized SmoIP GFP fluorescence [2] [%]
Nc1cccc2c1C(=O)N(C1CCC(=O)NC1=O)C2=O (stereo not drawn) [Pomalidomide(CC-4047)],148,1.89
Cc1cc(C(C)(C)C)c(O)c(C)c1CC1=NCCN1 [Oxymetazoline-hydrochloride],114,0.588
CC[C@@]1(O)C(=O)OCc2c1cc1n(c2=O)Cc2cc3c(CN(C)C)c(O)ccc3nc2-1 [Topotecan-Hydrochloride],139,44.8
COCC[n+]1c2c(n(Cc3cnccn3)c1C)C(=O)c1ccccc1C2=O,143,11.2
C[N+]1(C)CCC(=C(c2ccccc2)c2ccccc2)CC1 [diphemanil-methylsulfate],114,-4.13
Clc1ccc2nsnc2c1NC1=NCCN1 [Tizanidine-hydrochloride],137,7.06
O=c1cc(-c2cccc3c2Sc2ccccc2S3)oc(N2CCOCC2)c1,221,60.6
CC(C(O)c1ccc(O)cc1)N1CCC(Cc2ccccc2)CC1 (stereo not drawn) [ifenprodil-tartrate],132,9.51
CCO[C@@H]1OC(=O)C[C@@H]1NC(=O)[C@@H]1CCCN1C(=O)[C@@H](NC(=O)c1ccc(N)c(Cl)c1)C(C)(C)C,134,-14.5
O=C(COc1cccc2c(=O)[nH]ccc12)c1ccccc1,226,39
C#Cc1cccc(Nc2ncnc3cc(OC)c(OCCCCCCC(=O)NO)cc23)c1,232,74.7
NC(=O)c1ccc(N(C(N)=O)c2c(F)cccc2F)nc1-c1ccc(F)cc1F,108,-6.06
c1cn2cc(-c3ccc4cn[nH]c4c3)nc(Nc3ccc(N4CCOCC4)cc3)c2n1,152,22.8
Cc1cnc(NC(=O)Nc2cc(Br)c(C)cc2OC[C@@H]2CNCCO2)cn1,176,56.5
O=c1n(CCCN2CCN(c3cccc(Cl)c3)CC2)nc2ccccn12 [trazodone-hydrochloride-desyrel],182,8.54
FC(F)c1nc2ccccc2n1-c1nc(N2CCOCC2)nc(N2CCOCC2)n1,45.3,-30.1
CCc1cc2c(cc1N1CCC(N3CCOCC3)CC1)C(C)(C)c1[nH]c3cc(C#N)ccc3c1C2=O,161,8.81
